Results are given in words; binding and its absence hold for the method and conditions named. Binding seen in cells or lysates may run through a third protein. Some binding calls cover weakened binding; strength is not graded here.

By UniProt entry, the sequences of proteins in these tests, tags left out.
UniProt P35222: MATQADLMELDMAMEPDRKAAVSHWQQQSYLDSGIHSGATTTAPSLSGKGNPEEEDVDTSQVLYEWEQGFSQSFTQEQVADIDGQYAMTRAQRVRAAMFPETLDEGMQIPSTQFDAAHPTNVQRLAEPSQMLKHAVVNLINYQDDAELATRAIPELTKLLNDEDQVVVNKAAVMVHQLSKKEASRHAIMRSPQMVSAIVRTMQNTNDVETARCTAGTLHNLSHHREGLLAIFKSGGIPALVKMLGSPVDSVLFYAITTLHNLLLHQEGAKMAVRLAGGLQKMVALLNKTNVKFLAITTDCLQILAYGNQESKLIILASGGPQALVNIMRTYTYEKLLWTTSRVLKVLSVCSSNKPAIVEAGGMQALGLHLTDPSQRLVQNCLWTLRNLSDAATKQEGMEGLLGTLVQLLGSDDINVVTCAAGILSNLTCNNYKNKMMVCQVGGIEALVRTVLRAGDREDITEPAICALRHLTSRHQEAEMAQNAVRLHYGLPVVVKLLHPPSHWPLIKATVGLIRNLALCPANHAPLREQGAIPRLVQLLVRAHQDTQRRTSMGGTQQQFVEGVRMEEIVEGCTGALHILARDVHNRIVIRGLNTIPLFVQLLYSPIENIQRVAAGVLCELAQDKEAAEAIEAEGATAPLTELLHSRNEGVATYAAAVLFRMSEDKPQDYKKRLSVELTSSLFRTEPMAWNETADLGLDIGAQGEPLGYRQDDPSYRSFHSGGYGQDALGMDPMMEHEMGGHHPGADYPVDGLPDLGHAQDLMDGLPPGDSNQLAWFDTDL
UniProt P56693: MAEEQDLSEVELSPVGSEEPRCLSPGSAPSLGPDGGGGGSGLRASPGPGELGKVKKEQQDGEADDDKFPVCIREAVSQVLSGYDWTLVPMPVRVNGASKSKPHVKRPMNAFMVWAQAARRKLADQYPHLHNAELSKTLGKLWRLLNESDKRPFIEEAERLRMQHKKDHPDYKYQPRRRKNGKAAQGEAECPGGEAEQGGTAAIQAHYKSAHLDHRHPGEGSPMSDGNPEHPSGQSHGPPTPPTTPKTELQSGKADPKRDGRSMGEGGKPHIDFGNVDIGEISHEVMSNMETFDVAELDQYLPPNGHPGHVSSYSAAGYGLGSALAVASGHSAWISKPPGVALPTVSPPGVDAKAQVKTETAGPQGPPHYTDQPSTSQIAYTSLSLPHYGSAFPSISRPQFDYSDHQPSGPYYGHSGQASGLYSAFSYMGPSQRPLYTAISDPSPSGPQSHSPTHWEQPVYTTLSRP

For test [1], the target named is endogenous β-catenin (human (endogenous in HCT116 and 293T)) (UniProt P35222). In words: co-IP; whole-cell extracts of HCT116 cells transfected with V5-tagged SOX10; immunoprecipitated with anti-V5 or anti-β-catenin (IgG as negative control), western blot. A general note: A western blot detects proteins with antibodies after separation by electrophoresis.
Another test deals with GST-tagged β-catenin (UniProt P35222). Kind of test: pull-down; GST or GST-β-catenin (glutathione-sepharose beads) incubated with SOX10 protein extracted from 293T cells transfected with pcSOX10, 1 hour at 4°C; SDS-PAGE and western blot; only the target purified.
The target of test [2] is V5-tagged SOX10 (wild type) (human) (UniProt P56693). In words: co-IP; whole-cell extracts of HCT116 cells transfected with V5-tagged SOX10; immunoprecipitated with anti-V5 or anti-β-catenin (IgG as negative control), western blot.
The target is the same in test [3]. In words: co-IP; whole-cell extracts of cells expressing V5-SOX10 or its mutants (3G, DB, 482ins6); endogenous β-catenin; cell line (HCT116 or 293T) and precipitating antibody not stated for this panel (Figure 6B).

As for “V5-tagged SOX10 (wild type) (from UniProt P56693 1-466)”, the binding result (in test [1]; with GST-tagged β-catenin) was “binds” each time.

For the substance “endogenous β-catenin (from UniProt P35222 1-781)”, the binding result in test [2] and in test [3] was “binds” throughout.

For the origin of these results see article PMC4279394.
